Earlier results, collected in US20040115236A1, “Devices and methods for management of inflammation” (priority 2000, published 2004).

Conditions: inhaled administration of 20 mg doses via Spinhaler; cited from earlier work

O=C(O)c1cc(=O)c2c(OCC(O)COc3cccc4oc(C(=O)O)cc(=O)c34)cccc2o1 [sodium cromoglycate, Sodium cromoglycate]
peak plasma concentrations: 35 to 90 ng/mL
